No constants are given. Whether binding was seen depends on the method and setting. Binding seen in cells or lysates may run through a third protein. Some binding calls cover weakened binding; strength is not graded here.

The chains behind the UniProt entries cited, without tags or fusion partners. Where a name states a change or a piece, a line headed by the entry shows the natural chain unless it says otherwise. A line that says so, or that is headed by a name, gives the form on record, which may keep a tag or linker.
UniProt Q8K3K8: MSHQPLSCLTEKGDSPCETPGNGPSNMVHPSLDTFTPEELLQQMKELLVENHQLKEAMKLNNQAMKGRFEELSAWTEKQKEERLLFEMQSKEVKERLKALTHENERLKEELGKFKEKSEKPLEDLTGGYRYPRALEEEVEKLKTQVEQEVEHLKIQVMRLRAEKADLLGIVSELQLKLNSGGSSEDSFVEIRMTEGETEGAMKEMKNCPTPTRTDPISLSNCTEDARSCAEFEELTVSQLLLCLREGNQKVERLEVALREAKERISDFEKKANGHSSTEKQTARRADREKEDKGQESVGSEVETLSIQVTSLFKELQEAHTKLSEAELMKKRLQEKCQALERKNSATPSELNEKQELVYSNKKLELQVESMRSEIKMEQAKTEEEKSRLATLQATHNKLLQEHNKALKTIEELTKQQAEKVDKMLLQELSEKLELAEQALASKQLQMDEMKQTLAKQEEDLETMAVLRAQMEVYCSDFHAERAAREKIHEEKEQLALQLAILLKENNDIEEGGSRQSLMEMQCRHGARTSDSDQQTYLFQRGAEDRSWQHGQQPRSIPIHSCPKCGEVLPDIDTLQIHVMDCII
UniProt P00441: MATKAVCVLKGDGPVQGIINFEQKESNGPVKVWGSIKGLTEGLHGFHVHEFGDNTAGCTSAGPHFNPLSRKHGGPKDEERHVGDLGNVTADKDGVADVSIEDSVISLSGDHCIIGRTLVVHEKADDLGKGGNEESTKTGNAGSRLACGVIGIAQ
mutant SOD1 A4V, FLAG-tagged (A4V-FLAG) (P00441, form named): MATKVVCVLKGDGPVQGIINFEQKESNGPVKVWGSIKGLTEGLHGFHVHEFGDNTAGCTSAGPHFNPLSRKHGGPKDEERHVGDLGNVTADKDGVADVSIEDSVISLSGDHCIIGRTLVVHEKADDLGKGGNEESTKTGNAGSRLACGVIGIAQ
mutant SOD1 G93A, FLAG-tagged (G93A-FLAG) (P00441, form named): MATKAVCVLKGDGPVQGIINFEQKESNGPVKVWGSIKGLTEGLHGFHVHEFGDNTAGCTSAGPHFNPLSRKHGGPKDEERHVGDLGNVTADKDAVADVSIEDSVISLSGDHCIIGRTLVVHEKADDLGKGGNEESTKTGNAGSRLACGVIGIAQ

This assay concerns the target optineurin (endogenous, N2a cells) (mouse (endogenous in N2a)) (UniProt Q8K3K8). Kind of assay: co-IP; N2a cells 48 h after transfection; 1% NP-40 lysis buffer; extracts incubated with OPTN antibodies overnight at 4 °C, Protein G Sepharose beads; immunoblotted with FLAG antibodies. (In general: Immunoblotting shows a protein as a band on a membrane.)
Take “mutant SOD1 A4V, FLAG-tagged (A4V-FLAG) (from UniProt P00441 1-154)”: the binding entry is given as “binds”.
In the case of “wild type superoxide dismutase 1, FLAG-tagged (SOD1-FLAG) (from UniProt P00441 1-154)”, the binding result is “no binding”.
Then “mutant SOD1 G93A, FLAG-tagged (G93A-FLAG) (from UniProt P00441 1-154)”, with “binds”.

The record behind these values is paper PMC7590160.
